Laboratory results published in PubChem BioAssay AID977622 (Broad Institute, 2014).
The other results are listed elsewhere or left out. Further columns of the screen follow, without active or inactive calls.

Assays:
[1] = growth inhibition of wild-type GFP E. coli, dose response, h38 mutant RFP, cherry-pick (AID 977622); conditions: E. coli mixed culture, 24 h, total growth OD600 at 50 uM
[2] = system: E. coli h38 humanized mutant ribosome RFP fluorescence, mixed culture, 24 h; assay: as above; conditions: h38 mutant RFP at 50 uM

Work on O=C(Cn1c(CO)nc2ccccc21)NCCc1ccc(F)cc1 yielded an activity change [1] of -40.7% and an activity change [2] of 47.8%.

CCN(CC)c1nc(Oc2ccc(C(=O)OC)cc2)nc(N2CCOCC2)n1 showed an activity change [1] of -15.4% and an activity change [2] of 3.47%.

CC(C)C[C@H]1COc2cc(Br)ccc2S(=O)(=O)N1 showed an activity change [1] of -43.1% and an activity change [2] of -40.6%.

Compound CC(=O)Nc1ccc2nc3ccccc3nc2c1 has an activity change [1] of -14.9% and an activity change [2] of 3.93%.

For Cc1cc2c(sc3ccccc32)c(C)n1, the activity change [1] was -35.3% and the activity change [2] was -41%.

CCc1ccn2cc(-c3ccc4c(c3)OCO4)nc2c1 gave an activity change [1] of -39.5%.

Work on COc1ccc(NC(=O)CSc2nnc(Cc3ccccc3)o2)c(OC)c1 yielded an activity change [1] of -23.6%.

Work on CCc1nnc(NS(=O)(=O)c2ccc(NC(=O)c3cccc(Cl)c3)cc2)s1 yielded an activity change [1] of -37% and an activity change [2] of 17.4%.

COc1ccccc1-c1nnc(C2CCN(S(=O)(=O)c3cccc([N+](=O)[O-])c3)CC2)o1 showed an activity change [1] of -19.2% and an activity change [2] of -6.33%.

O=C1CCCN1c1ccc([N+](=O)[O-])cc1 showed an activity change [1] of -15.5% and an activity change [2] of 11.8%.

In the case of Cc1cc2oc(C(=O)N3CCN(Cc4ccccc4)CC3)c(C)c2cc1C, the activity change [1] is reported as -89.7% and the activity change [2] is reported as -0.078%.

Compound COCCNC(=O)c1cc2c(-c3ccc(Cl)cc3)nn(C)c2s1 has an activity change [1] of -63% and an activity change [2] of 39.6%.

For COc1cccc(Nc2nc(N)c([N+](=O)[O-])c(N3CCOCC3)n2)c1, the activity change [1] was -20.7% and the activity change [2] was -9.44%.

Work on Cc1occc1C(=O)Nc1ccc2c(c1)CCC2 yielded an activity change [1] of -35.6% and an activity change [2] of -6.47%.

Compound COCC#Cc1ccc2c(c1)O[C@@H](CN(C)S(=O)(=O)c1cccc(F)c1)[C@@H](C)CN([C@H](C)CO)S2(=O)=O has an activity change [1] of -41.9% and an activity change [2] of 0.571%.

With COc1ccccc1OCC(=O)Nc1ccc(S(=O)(=O)N2CCCCCC2)cc1 the activity change [1] was -28% and the activity change [2] was 5.36%.

CN1CCN(C(=O)C[C@H]2CC[C@H]3[C@@H](COC[C@H](O)CN3C(=O)Nc3ccc(Cl)cc3)O2)CC1 showed an activity change [1] of -68% and an activity change [2] of 60.1%.

COc1cc(-c2cc3nc(NCCc4ccncc4)ccn3n2)cc(OC)c1OC showed an activity change [1] of -37.7% and an activity change [2] of -28.6%.

Compound COc1ccc(/C=C/c2nc3ccccc3n2Cc2ccccc2OC)cc1 has an activity change [1] of -32.5% and an activity change [2] of 32.2%.

COCC(=O)N1[C@@H]2CN(C(=O)Nc3ccccc3F)c3ccccc3[C@@H]2[C@@H]1CO gave an activity change [1] of -1.19% and an activity change [2] of 10.2%.

For Cc1ccc(NC(=O)CN(C)C(=O)Cc2coc3cc(C)c(C)cc23)cc1, the activity change [1] was -62.5% and the activity change [2] was 57.7%.

Work on Cc1cc(C)c(C#N)c(N2CCN(c3ccccc3)CC2)n1 yielded an activity change [1] of -66% and an activity change [2] of 22%.

For O=C(c1csc(Nc2cccc3ccccc23)n1)N1CCCC1, the activity change [1] was -61% and the activity change [2] was 93.5%.

Cc1cc(C)cc(NC(=O)c2cccc(NC(=O)c3ccco3)c2)c1 gave an activity change [1] of -56.8% and an activity change [2] of -17.6%.

For CN(C(=O)COc1ccccc1C(=O)NCCOc1ccccc1)c1ccccc1, the activity change [1] was -17.2% and the activity change [2] was 6.79%.

O=C(Nc1cccc(Cl)c1)N1C[C@H]2[C@@H](c3ccccc31)[C@@H](CO)N2C(=O)c1ccncc1 gave an activity change [1] of -15.9% and an activity change [2] of 13.2%.

Cc1ccc(Cc2c(-c3cccc(Br)c3)nc3ccc(C)cn23)cc1 showed an activity change [1] of -6.5% and an activity change [2] of 1.94%.

Work on CC(C)C#Cc1ccc([C@@H]2[C@H](CO)N3CCCCN(S(=O)(=O)Cc4ccccc4)C[C@@H]23)cc1 yielded an activity change [1] of -50.5% and an activity change [2] of -52.3%.

With CC(C)CC#Cc1ccc([C@H]2[C@@H](CO)N3CCCCN(S(=O)(=O)Cc4ccccc4)C[C@H]23)cc1 the activity change [2] was -76.7%.

For Cc1c(Cc2ccccc2)sc(NC(=O)Cc2ccccc2)c1C(N)=O, the activity change [1] was -6.82% and the activity change [2] was 69.7%.

Work on COc1cccc(NC(=O)CN(C)CC(=O)Nc2ccc(Br)cc2)c1 yielded an activity change [1] of -32.7%.

With Nc1ccccc1Nc1ccc([N+](=O)[O-])cc1[N+](=O)[O-] the activity change [1] was -10.3%.

Work on CCc1ccc2[nH]c(C(=O)Nc3ccc4c(c3)OCO4)cc2c1 yielded an activity change [2] of -20.7%.

In the case of C[C@@H]1CCCCO[C@@H](CN(C)C(=O)c2ccccc2)[C@H](C)CN([C@@H](C)CO)C(=O)c2cc(NC(=O)c3ccccc3)ccc2O1, the activity change [1] is reported as -8.14% and the activity change [2] is reported as 4.93%.

For O=C(NCCCCc1ccccc1)c1cccc(NC(=O)C2CCCCC2)c1, the activity change [1] was -49.7%.

With Cc1cc(C(=O)Nc2ccc(Cl)cc2)c(C)n1Cc1cccs1 the activity change [1] was -8.24% and the activity change [2] was 13.4%.

For CN(Cc1ccc(F)cc1)C(=O)CN1CCN(S(=O)(=O)c2ccc3c(c2)OCCCO3)CC1, the activity change [1] was -43.5%.

With Cn1nc(C(F)(F)F)c2cc(C(=O)Nc3ccc(C(F)(F)F)cc3)sc21 the activity change [1] was -64.8% and the activity change [2] was -62.6%.

With CN(C(=O)CN1C(=O)NC2(CCc3ccccc32)C1=O)C1CCCCC1 (stereo not drawn) the activity change [1] was -17.8% and the activity change [2] was 0.094%.

In the case of O=C(O)c1cccnc1SCc1ccccc1Cl, the activity change [1] is reported as -58.8% and the activity change [2] is reported as -20.4%.

With COCCCNc1ccn2nc(-c3ccccc3)cc2n1 the activity change [1] was -0.707%.

In the case of CCOC(=O)C1NN=C(C(=O)c2ccccc2)C1c1ccc(OC)cc1 (stereo not drawn), the activity change [1] is reported as -3.12% and the activity change [2] is reported as -12.8%.

Work on Cc1cccc(-c2ccc([C@H]3[C@@H](CO)N4CCCCN(S(=O)(=O)c5ccccc5C)C[C@H]34)cc2)c1 yielded an activity change [1] of -66.5% and an activity change [2] of 114%.

For CCc1cc2cc(OC)ccc2nc1SCC(=O)Nc1cc(OC)c(OC)cc1C(=O)O, the activity change [1] was -54.3% and the activity change [2] was -29.1%.

In the case of COC(=O)[C@H](Cc1c[nH]c2ccccc12)NCc1cccc(B(O)O)c1, the activity change [1] is reported as -18.9% and the activity change [2] is reported as 7.03%.

Work on COc1ccc(S(=O)(=O)N2CCCCN3[C@@H](CO)[C@H](c4ccc(C#CC(C)C)cc4)[C@@H]3C2)cc1 yielded an activity change [1] of -63% and an activity change [2] of -2.31%.
